Source: publication doi:10.1101/2025.01.09.632086
No constants are given. Whether binding was seen depends on the method and setting.

By UniProt entry, the sequences of proteins in these tests, tags left out. Where a name states a change or a piece, a line headed by the entry shows the natural chain unless it says otherwise.
UniProt P0ACD4, whole entry, looked up, stated change not applied: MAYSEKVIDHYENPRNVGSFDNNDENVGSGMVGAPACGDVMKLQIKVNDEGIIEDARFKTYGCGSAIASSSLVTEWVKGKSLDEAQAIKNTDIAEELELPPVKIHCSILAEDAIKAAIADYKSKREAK

Molecular target: IscU Y11P (E. coli) (UniProt P0ACD4)
Experiment: SEC-MALS

binding: no binding (tested: 5 mg/mL)
Substance: IscU Y11P (from UniProt P0ACD4 1-128)
